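Genome-wide siRNA knockdown in TC32 Ewing sarcoma cells, comparing luciferase light from an NR0B1-promoter reporter with a CMV-promoter reporter 48 hours after transfection. Each siRNA was applied at 20 nM. A z-score of the log NR0B1-over-CMV signal, less the median of siRNAs with the same seed; more negative means a stronger specific loss of the NR0B1 reporter.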

This is part of the screen; most of the strongest results are not listed here. Sequences are the guide (antisense) strand, without overhang.

| Sequence | gene | seed-corrected z-score |
|---|---|---|
| `CAAUGAGUAGGCGAUGGCC` | SLC26A1 | -0.4325 |
| `AAUUCGAUGAAUAUAAUCC` | DDX5 | -0.5916 |
| `CACACUUAUACUCAUGUUC` | PTPRC | 0.1598 |
| `UUCCUAACUACAGGCAGCU` | POMC | -0.8208 |
| `UCAUUAAUAUGGGCAUUGC` | MTERF4 | 0.3978 |
| `AUGGAUUUCAUCUCUCUAG` | IL26 | -0.1783 |
| `UUAAGGUAUUGAAUUCUCC` | LCTL | 0.2074 |
| `UAAAGAUUCACAAGUGAGG` | RNF4 | 0.9541 |
| `UAGGAGGAUUGGACCAUGU` | FBP2 | -0.005929 |
| `AUUGGAACCACAGUAACUC` | OR5AR1 | 0.287 |
| `UGUUCUUCCAGUCUGAUGU` | TIMM22 | -0.1356 |
| `UACUAAGUUGCUAUUGACC` | EPHA6 | 0.3975 |
| `UGCUUAAUUGCGCCGAUCC` | BHLHE40 | -0.2146 |
| `AAACUUGCUCGCUCAGUUC` | COL6A3 | -1.376 |
| `UGAUGCUUAACAGGUGGUG` | DOK7 | -1.65 |
| `UAAGGGCUCAUUACCCGCU` | CD79A | 0.9276 |
| `UAGCCUUUCACAGCGGCUU` | MDH2 | 0.3787 |
| `AUCCUGACUGGAUUGGUUC` | PXMP2 | 0.5547 |
| `AAAGGGCAUAUCUCGAAGG` | SLC25A38P1 | -0.2632 |
| `UUAGAAAAGUGUAGUAAGC` | G6PC2 | 0.001356 |
| `AUCGAUGAAGGUGACAGGC` | TPRN | -0.0122 |
| `UCAGGGAUGAUGGAGACCC` | C5orf60 | -0.04365 |
| `UCUGUAGAAAGUAUGUAGU` | FNTB | -0.1593 |
| `UUUCCGAGCAUCUUCUUCC` | TRMT13 | 0.3764 |
| `AACGGCAUCCUUGACAUCA` | RTP5 | -0.1274 |
| `UGAGUAAGAAGUCAUACGC` | SH3BP4 | -1.066 |
| `UGCAUGAACGUGAUCUUGG` | TTF2 | 0.156 |
| `UAAGAAUCUUCUAUCGUAG` | RAP1BL | -0.04382 |
| `AAUGUAAGACAAUCUAGGG` | LRRN3 | 0.02516 |
| `UUACUGGAUGGUUCCUUCC` | POLR2L | -0.9299 |
| `UUGGUGACUUGGUCGUUGG` | IDH1 | -0.6199 |
| `UCUGGUGCAAGAGCAAUGC` | ZNF337 | -0.6123 |
| `UUCUGUCGACUCUCUAUCC` | HELLS | -0.2108 |
| `UUUCCACCAAGCUUGAGUC` | PCIF1 | 0.2755 |
| `UCCAGAAUGACACGGAUGC` | SLC3A2 | 0.498 |
| `UAAGCUCCCAUGAGCACAG` | UBAC1 | 0.353 |
| `UCAAGAAAUACGUUAAGUC` | SRP19 | 1.178 |
| `UUGCGUUCCUGUUUGGGUC` | SCN2A | -0.3764 |
| `AAACCAUUGAACAGGUCUC` | LYSMD1 | -0.5526 |
| `AUAGGAGAGUAAGUGGUCG` | UMAD1 | -0.1411 |
| `UUUAUAUCCAGGUUAUUCC` | TBC1D31 | 1.352 |
| `UUGGUUGUCAGAGGGUGAC` | C1orf216 | 0.379 |
| `GACGGUCAGCGUGAAGAUG` | UTS2R | 0.6456 |
| `UUAAUUGUCUUGUAAGGUC` | GCC2 | 0.5659 |
| `UCGGUUAUUAGCUAUCUGG` | ZCCHC7 | 0.6388 |
| `UAAGAAGACCUAGAUCUCC` | MYCT1 | 0.02989 |
| `UUCCCUAUGGGUAUCUUCU` | HMGN2P31 | 0.1646 |
| `AGAGAAAUGGCUUUUGUAC` | C19orf81 | -0.09607 |
| `AAUGUGACAAGGUUCCCAC` | TAP1 | -1.259 |
| `UGCAUUGUCACGUACCAGC` | KIF5A | -0.01913 |
| `AAGCUUUUCAGAUUUAAUC` | TMEM51 | 0.3071 |
| `UAAGCCUUGAGGCGGAAGU` | PDDC1 | -0.1937 |
| `UAUUUACGAGCAAAUGAGG` | MSANTD4 | 0.3107 |
| `AAGACAAUUAACAUCAUUC` | CLEC4A | 0.6946 |
| `UAAUUCGUCUUUCAGAUGG` | CFAP161 | 0.7809 |
| `AUCGUUCUGAUAACAGUUG` | ARFIP2 | 0.4226 |
| `UCAGGUCAAUAGUCAAGCC` | NONO | -0.5229 |
| `UUUUUGCACGCCUCCACUC` | SMG7-AS1 | 0.818 |
| `UUUCUGUCAGCUUCAACUU` | CCDC117 | 0.1261 |
| `UGUAUGUCCACAUCUUCUC` | GRIA1 | -1.338 |
| `UCUGCAAUCUCCGUGAUGU` | TNNI3 | 0.1404 |
| `UACUUAGCAAGUGUGGACC` | FAM170B | -0.1407 |
| `UGAGGCCUCACAUCGAAGU` | C4orf3 | -0.03272 |
| `UUAGUGAGUUUAAUCUUGG` | FAM227B | 1.446 |
| `UCGUCGUUGAUAUUGCUGG` | ZNF385D | -0.1869 |
| `UUAGGGAAAAGAAGCUCUG` | S100A10 | 0.7899 |
| `UUCCUUACCACGCAGUUCA` | WBSCR28 | -0.3407 |
| `AUUGAUACCAUCAGGAUUC` | CDH11 | -0.1829 |
| `UCUGCUACAAUCUUGUCUC` | DLG5 | -0.1411 |
| `ACAAUUGACAUGUCCAUAG` | CCNA2 | -1.063 |
| `UGAUAAUCCCGGUCCAUGG` | AJUBA | 0.3666 |
| `UCAGGAAAGCGUGGAAGGC` | RGS16 | 0.5389 |
| `AUACUGCUCACCUUCUCCC` | ZYX | -0.09961 |
| `UUAGCAUCUUUACCUUUCC` | SCIN | 0.1618 |
| `UACUGAACCUGGUACAUGC` | LRFN1 | 1.499 |
| `UGCAUUGUCAUAGCAACUC` | INTS3 | 0.2961 |
| `AAAUUUGUCAUUGGAGAUG` | TFDP1 | -1.841 |
| `UACUUUUCUAUGAUGACCC` | RPS17P16 | 2.689 |
| `UUGAACAUCAAGACAGAGC` | LOC729867 | 0.1416 |
| `UACACUUUAAACUUCAUGA` | DKFZP434I0714 | -0.1518 |

Some entries from above, unchanged:

- UAAGCCUUGAGGCGGAAGU against PDDC1 : seed-corrected z-score -0.1937
- UUUCCGAGCAUCUUCUUCC against TRMT13 : seed-corrected z-score 0.3764
- AUCGUUCUGAUAACAGUUG against ARFIP2 : seed-corrected z-score 0.4226
- AAAGGGCAUAUCUCGAAGG against SLC25A38P1 : seed-corrected z-score -0.2632
- UGUAUGUCCACAUCUUCUC against GRIA1 : seed-corrected z-score -1.338
- UCUGCAAUCUCCGUGAUGU against TNNI3 : seed-corrected z-score 0.1404
- UACUGAACCUGGUACAUGC against LRFN1 : seed-corrected z-score 1.499
- UUUUUGCACGCCUCCACUC against SMG7-AS1 : seed-corrected z-score 0.818
- UACACUUUAAACUUCAUGA against DKFZP434I0714 : seed-corrected z-score -0.1518
- UAAUUCGUCUUUCAGAUGG against CFAP161 : seed-corrected z-score 0.7809

The results are deposited in PubChem (AID1159506; NCATS, 2015).